Assay results as given in patent publication US20120219636A1, “ENHANCED REMOVAL OF VIRUSES FROM FRESH PRODUCE” (THE OHIO STATE UNIVERSITY, priority 2011, published 2012).
Some entries share one result that the patent states for a list of compounds.

Tested on: MNV-1
Assay: Sanitization wash of MNV-1 inoculated fresh produce, viral survivors by plaque assay
Parameters: species or system murine norovirus
Details: all tested fresh produce; data not shown

Substance	virus reduction
Tween 65	3-3.6 logs
Tween 80	3-3.6 logs
